Primary screen of a compound library

Measurements from “University of Dundee, Small-Polar-MMV Screening Library” (2021), ChEMBL document CHEMBL3988442.

T. brucei: 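Whole-parasite assay of Trypanosoma brucei over 72 hours; the read-out is not stated. Tested at 30 µM. The record gives no direction; compounds that gave an IC50 in retests scored well above the rest, so higher reads as stronger inhibition. Values scatter widely below zero; nearly all retest evidence comes from the higher of the two concentrations used. Size under these conditions: about 64,000 compounds, about 940 of them at 50% or above in at least one test.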
Toxoplasma: 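Assay of Toxoplasma gondii numbers, read through their beta-galactosidase reporter with a colour substrate. Tested at 10 µM. The record gives no direction; the compounds picked for IC50 retests had high values, so higher reads as fewer parasites. About 67,000 compounds were tested under these conditions; 0.38% (about 260) showed 50% or more at least once.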

The filed quantity is “Percent Effect” (%).
How 0% and 100% were set is not recorded. Most values in the screen are low, and negative values occur.
Compounds were drawn at random from those tested, without regard to their results.
A dash means the value is not listed here; it may have been measured.

Compound,T. brucei,Toxoplasma
O=C(CCCOc1ccccc1Cl)N1CCCC(n2cncn2)C1 (stereo not given),-15.38,26.84
CCS(=O)(=O)N1CCC2(CC(=O)N(c3ccc4c(c3)OCO4)C2)C1 (stereo not given),-16.27,-19.27
NC(=O)c1cnc(NC2CCC(c3ccccc3)CC2)c(Cl)c1 (stereo not given),-0.9053,3.245
CCc1ncc(C(=O)N2CCn3c(CC)nnc3C2)s1,4.885,-4.08
O=S(=O)(c1ccccc1F)N1CCCCC1c1cc[nH]n1 (stereo not given),3.607,4.223
C[C@@H]1CN(C2(C(=O)N3CCSCC3)Cc3ccccc3C2)C[C@H](C)O1,0.3549,0.1808
CCc1ncc2c(n1)CN(C(=O)c1c(C)[nH]c(C(C)=O)c1C)C2,-,-10.32
COCCN1CCN(Cc2noc(C3CC3)n2)CC1C (stereo not given),-85.61,-
N#Cc1cccnc1N1CCN(C(=O)c2cccs2)CC1,-34.8,-1.268
CSc1ccc(CNC2CCN(CCc3ccncc3)CC2)cc1,41.47,-2.252
O[C@@H]1CN(CC2=Cc3cc(Cl)ccc3OC2)CC[C@H]1N1CCCCCC1,78.41,0.2163
CC(C)N1CCC(N(C)c2ccnc(N(C)C)n2)CC1,9.826,4.797
O=C(CN1CCCC(Cn2cncn2)C1)NCCc1cccs1 (stereo not given),5.765,2.48
O=C(O)C(F)(F)F.O=C(O)C(F)(F)F.c1cncc(-c2ncnc3c2CCN(Cc2ccsc2)CC3)c1,-86.5,25.7
Cl.Cl.O[C@@H]1C[C@@](CNCc2ccc(Cl)cc2)(COc2cccnc2)C[C@@H]1O,-3.427,14.57
CN1CCN(Cc2ccccc2Oc2nccc3occc23)CC1,-37.53,-13.17
CCC1(c2ccc(NS(=O)(=O)c3cccs3)cc2)CCC(=O)NC1=O (stereo not given),-25.59,1.554
CC(C)CC(NC(=O)c1ccn(C)c(=O)c1)c1ccccc1 (stereo not given),-24.16,-2.083
CC(C)N(C)Cc1cncc2c1CCN(C1CCOCC1)C2.Cl.Cl.Cl,-52.25,3.975
O=C1CCCN1CCCN1CCCC1Cn1cccn1 (stereo not given),-32.95,-0.3793
CCn1nc(C)c2ccn(CC(=O)NCCN3CCCCC3)c(=O)c21,-9.123,-7.186
CN(CCOc1ccc(F)cc1)S(=O)(=O)N1CCOCC1,-11.26,-7.253
Cc1ccc(F)cc1S(=O)(=O)N1C[C@@H](C)[C@@](C)(O)C1,-33.88,-0.6007
O=C(O)C(F)(F)F.O=C(O)C(F)(F)F.[H][C@@]12CCCO[C@]1([H])[C@H](N(C)Cc1ccco1)CN(Cc1ccc(C)s1)C2,26.16,4.34
O=C(c1cnc(Cc2c(Cl)cccc2Cl)nc1O)N1CCNCC1,-24.88,-5.385
CC(C)(C)OC(=O)NCCC(=O)NCC(O)c1cccc(F)c1 (stereo not given),-41.27,-9.599
CCC(NC(=O)C1CCN(C(=O)C2CC2)CC1)c1cn2cccnc2n1 (stereo not given),-8.655,-13.98
COc1ccc(CNC(=O)CCSCc2csc(C)n2)cn1,2.546,-16.41
CC(O)(CN1CCC(O)CC1)c1cccc(C(F)(F)F)c1 (stereo not given),-,7.574
Cc1ccc(CC(=O)N2CCOCC2c2ncon2)cc1 (stereo not given),-13.62,-0.2872
[H][C@@]12CCCN1C[C@@H](CCSC)N(Cc1cn(CC)nc1C)C2,19.32,-2.107
CN1CCCC(c2nnc3n2CCN(S(=O)(=O)c2ccccc2Cl)C3)C1 (stereo not given),2.8,11.45
O=C1CN(CCCNS(=O)(=O)c2cccc(C(=O)NC3CC3)c2)CCN1,-7.052,4.182
CC(O)(CCc1ccccc1)CNC(=O)c1cccs1 (stereo not given),16.26,-2.188
O=C(O)C(F)(F)F.c1ccc(CCNCC2Cn3nncc3CO2)cc1 (stereo not given),-24.55,-8.069
COc1ccc(S(=O)(=O)N[C@H]2CN(C(C)=O)C[C@@H]2C(C)C)cc1F,-26.85,9.373
CCN(Cc1nc2c(cnn2C)c(=O)[nH]1)c1cccc(F)c1,-18.92,1.069
Cc1ccc(OCCNc2cccc(C(=O)N3CCOCC3)c2)cc1,-36.52,10.99
Cc1cc(C)n(Cc2cccc(C(=O)NCCSCC(C)(C)O)c2)n1,-10.31,27.64
CCC(c1ccccc1)S(=O)(=O)CCO (stereo not given),0.5328,-7.512
Cc1nc(N2CCCC2)nc2c1CCN(C(=O)C1CCCCC1)CC2,-15.45,-8.821
CCn1nc(C)c2nc(C)nc(NCCCn3cccn3)c21,-1.841,20.67
Cn1ccc(C(=O)NCc2ccc(CN3CCCC3)cc2)cc1=O,-,-12.32
CCN1CCN(C(=O)c2nc(C)n(-c3ccccc3Cl)n2)CC1,12.05,-5.461
Cc1cccc(N2CCN(C(=O)Nc3cnn(CC(N)=O)c3)CC2)c1,-15.28,-27.14
Cc1cc(-c2cnc(N3CCC(O)CC3)nc2C(C)C)on1,-9.521,3.329
CCc1ccc(CN2CCC3(CC2)CC(N2CCN(C)CC2)CO3)cc1.O=C(O)C(F)(F)F (stereo not given),-,0.4841
Cc1nc2ccc(C(=O)N3C[C@@H](O)[C@H](N4CCN(C)CC4)C3)cc2[nH]1,-4.48,-9.853
COCC(=O)N1CCC(C(=O)c2cc(C)cnc2N)CC1,9.396,-15.82
CC(C)NC(=O)N1CCN(S(C)(=O)=O)CC2(CNC(=O)C2)C1 (stereo not given),-1.207,-4.314
CCc1cc(O)nc(C2CCCN(Cc3ccncc3)C2)n1 (stereo not given),20.41,-18.87
CN(C)CC1(O)CCN(Cc2cnc3c(-c4ccccc4)cnn3c2)C1 (stereo not given),-49.81,-3.38
CCCc1nc(N2CCCCCC2)c2c(n1)c(C)nn2CC,-27.33,14.57
Clc1cnccc1N1CCCC2(CCCOC2)C1 (stereo not given),-6.935,-5.75
Cc1cnc(N2CCC3(CC2)COCCN(C(C)C)C3)nc1.O=C(O)C(F)(F)F,-38.48,6.099
CCn1nc(C)c2c1cnn2CCNS(=O)(=O)c1cccs1,-51.2,-5.126
Cc1cc(F)ccc1N1CCCC(NC2CCOCC2)C1=O (stereo not given),-52.34,3.831
Fc1cnc(N2CCC3(CCCN(c4nncs4)C3)C2)nc1 (stereo not given),-6.512,0.654
CC(NC(=O)COc1ccc(F)cc1)c1nnc2n1CCCCC2 (stereo not given),5.008,4.538
[H][C@]12C[C@H](C(=O)NCC3CC3)N(C)[C@@]1([H])CN(Cc1ccc(C)o1)C2,-21.97,-26.08
O=C(O)C(F)(F)F.[H][C@]12CN(C(=O)C3CCC3)C[C@@]1([H])C(=O)N(Cc1ccncc1)C2,5.079,1.825
COc1ccc(CN2CCOC3(CCCN(c4cnccn4)C3)C2)cc1.O=C(O)C(F)(F)F.O=C(O)C(F)(F)F (stereo not given),-1.715,8.875
CC(C)NC(=O)c1ccc2c(c1)nc1n2CCN(Cc2ccccc2)C1,-,-10.06
CC(=O)NCC(=O)NC1CCc2nccn2C1 (stereo not given),15.07,4.884
CC(C)c1nnc2n1CCN(C(=O)CN1Cc3ccccc3C1=O)C2,9.779,-12.14
O=C(COCC1CC1)N1CCN(C(=O)Cc2ccccn2)CC1,12.28,0.9091
Cc1nn(CC(C)C)c(C)c1CC(=O)N1CCCC(NS(C)(=O)=O)C1 (stereo not given),-25.93,2.426
CCCn1[nH]c(CNc2cccc(Cl)c2)nc1=O,-8.847,-20.83
O=C(O)C(F)(F)F.[H][C@@]12CCN(Cc3cn(C)c4ccccc34)[C@]1([H])CC[C@@H](C(=O)NC)O2,-11.32,-0.9239
CC(C)CN1CCC2(CC1)C(=O)Nc1ccc(C(=O)NC(C)C)cc12.O=C(O)C(F)(F)F,-23.56,4.456
Cl.Cl.[H][C@@]12CN(CCc3ccccc3)C[C@]1([H])C2CN (stereo not given in full),0.5802,7.075
CCS(=O)(=O)NCCCn1ncc2c(C)cccc21,-29.79,2.761
Cc1cc(C)nc(C2(C)CCCN2CCO)n1 (stereo not given),6.447,27.02
CC(=O)N(Cc1ncc(C)o1)C1CCN(Cc2csc(C)n2)C1 (stereo not given),-,7.565
Cc1nn(C)cc1NC(=O)CC1CCN(C(=O)Cc2ccccc2)CC1,-,-7.752
COc1ccc(F)cc1CN(CC(N)=O)C(C)C,-37.43,-1.033
N#Cc1nccnc1N1CCC(Cc2ccccc2)C1 (stereo not given),-8.784,-4.272
CC(C)NC(=O)[C@@H]1C[C@H](N)CN1C(=O)c1cc2c([nH]c1=O)CCCC2,40.75,-10.12
CC(C)n1cc(CN2CCCN(C(=O)c3ccco3)CC2)cn1,-57.64,-2.214
O=C(O)C(F)(F)F.O=C(O)C(F)(F)F.O=C(c1ccncc1)N1CCOC2(COCCN(c3cccnc3)C2)C1 (stereo not given),-8.759,-3.052
CCN(Cc1cnn(C)c1)C[C@H]1CC[C@@H](Cc2cccc(C#N)c2)O1,-6.698,5.814
CN(CCc1ccc2c(c1)CCO2)C1CCS(=O)(=O)CC1,-84.38,-4.77

Repeated from the top, 7 entries:

| Compound | T. brucei | Toxoplasma |
|---|---|---|
| `O=C(CCCOc1ccccc1Cl)N1CCCC(n2cncn2)C1` (stereo not given) | -15.38 | 26.84 |
| `CCS(=O)(=O)N1CCC2(CC(=O)N(c3ccc4c(c3)OCO4)C2)C1` (stereo not given) | -16.27 | -19.27 |
| `NC(=O)c1cnc(NC2CCC(c3ccccc3)CC2)c(Cl)c1` (stereo not given) | -0.9053 | 3.245 |
| `CCc1ncc(C(=O)N2CCn3c(CC)nnc3C2)s1` | 4.885 | -4.08 |
| `O=S(=O)(c1ccccc1F)N1CCCCC1c1cc[nH]n1` (stereo not given) | 3.607 | 4.223 |
| `C[C@@H]1CN(C2(C(=O)N3CCSCC3)Cc3ccccc3C2)C[C@H](C)O1` | 0.3549 | 0.1808 |
| `CCc1ncc2c(n1)CN(C(=O)c1c(C)[nH]c(C(C)=O)c1C)C2` | - | -10.32 |